{
  "source": "paper PMC10015868",
  "biological_target": "T1, Flag‐tagged IKKβ (UniProt O14920)",
  "T1 sequence": "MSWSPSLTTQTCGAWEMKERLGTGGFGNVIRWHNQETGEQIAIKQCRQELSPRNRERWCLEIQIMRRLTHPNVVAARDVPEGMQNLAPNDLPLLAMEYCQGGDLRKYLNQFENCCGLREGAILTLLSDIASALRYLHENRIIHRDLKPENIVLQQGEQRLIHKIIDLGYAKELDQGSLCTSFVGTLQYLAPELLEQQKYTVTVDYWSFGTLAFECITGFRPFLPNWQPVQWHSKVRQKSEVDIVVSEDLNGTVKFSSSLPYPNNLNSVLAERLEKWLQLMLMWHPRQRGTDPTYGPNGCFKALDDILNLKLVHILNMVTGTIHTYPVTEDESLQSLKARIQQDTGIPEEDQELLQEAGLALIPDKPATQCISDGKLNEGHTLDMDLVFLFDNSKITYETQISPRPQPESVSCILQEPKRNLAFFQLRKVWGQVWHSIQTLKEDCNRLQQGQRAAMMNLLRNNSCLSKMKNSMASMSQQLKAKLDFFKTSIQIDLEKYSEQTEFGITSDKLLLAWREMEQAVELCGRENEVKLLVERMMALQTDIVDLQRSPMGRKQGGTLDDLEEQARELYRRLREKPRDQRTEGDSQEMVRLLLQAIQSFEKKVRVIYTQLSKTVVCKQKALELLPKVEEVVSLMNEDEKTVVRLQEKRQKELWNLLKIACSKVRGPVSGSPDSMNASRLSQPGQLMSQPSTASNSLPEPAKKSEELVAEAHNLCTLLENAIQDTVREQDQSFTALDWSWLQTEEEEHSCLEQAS",
  "test": "co-IP; HEK293T cells transfected with tagged plasmids (in some panels with circWDR37 or forced PKR expression); lysed in coIP buffer, antibody at 4 °C overnight, beads 1 h at room temperature, washed ten times, western blot",
  "note": "No constants are given. Whether binding was seen depends on the method and setting. Binding seen in cells or lysates may run through a third protein. A result given as binding can be weak or reduced; the word gives no strength. Where a sequence is shown, tags or fusion partners need not be part of it.",
  "data": [
    {"substance": "PKR‐KD (KD domain of PKR), HA-tagged (domain or fragment)", "values": [
      {"measurement": "binding", "result": "binds"}
    ]}
  ]
}
